Assay results as given in PMC9598311, “Identification of a Small Molecule That Inhibits the Interaction of LPS Transporters LptA and LptC” (Antibiotics, 2022).
These are yes or no findings as the source states them, for the method shown. Some binding calls cover weakened binding; strength is not graded here. Where a sequence is shown, tags or fusion partners need not be part of it.

Target: T1, LptC fused to the Gal4 DNA-binding domain (pBD-LptC) (Escherichia coli) (UniProt P0ADV9)
T1 sequence: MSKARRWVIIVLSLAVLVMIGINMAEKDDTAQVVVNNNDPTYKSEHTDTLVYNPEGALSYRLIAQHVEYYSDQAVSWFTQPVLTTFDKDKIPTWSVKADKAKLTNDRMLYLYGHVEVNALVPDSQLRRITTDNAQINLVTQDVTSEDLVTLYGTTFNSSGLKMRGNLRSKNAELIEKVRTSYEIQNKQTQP
Experiment: two-hybrid; yeast AH109, Gal4 AD and BD fusions; growth on SD/-Leu-Trp-Ade-His medium and β-gal activity; 30 °C

B1: LptA fused to the Gal4 activation domain (pAD-LptA) (protein, UniProt P0ADV1 1-185)
chain: MKFKTNKLSLNLVLASSLLAASIPAFAVTGDTDQPIHIESDQQSLDMQGNVVTFTGNVIVTQGTIKINADKVVVTRPGGEQGKEVIDGYGKPATFYQMQDNGKPVEGHASQMHYELAKDFVVLTGNAYLQQVDSNIKGDKITYLVKEQKMQAFSDKGKRVTTVLVPSQLQDKNNKGQTPAQKKGN
B1 was tested, and the binding was “binds”.
